In the supplement of paper PMC9254222 one finds Renilla luciferase signal data, which are given here for 33 compounds.

Whole data set: some 1,100 compounds, median “Renilla luciferase signal (cell health) relative to plate median” near 0.97, cut for the highest 2% near 1.6. The entries are a selection whose mix differs from that of the whole data set.

This assay relates to HEK293T (UBE3A T485A transfected, BAR Wnt reporter). Kind of assay: Renilla luciferase signal (cell health) relative to plate median (fold (linear ratio)); higher = higher Renilla signal. As to conditions: 24 h. In short, it runs like this: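 Wnt activity (firefly/Renilla ratio) and cell health (raw Renilla) were read with Dual-Glo luciferase and median-centred plate by plate. HEK293T cells, at 4500 cells/well in white 384-well plates with DMEM plus 10% FBS at 37°C and 5% CO2, carried a transfected BAR firefly luciferase Wnt reporter, TK-Renilla and an expression plasmid. The chemicals were applied by robot at 0.01–100 uM for 24 h, beginning four hours after transfection, and results were averaged across four biological replicates.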

For `CCCCN(CCCC)N=O` [N-Nitrosodibutylamine], the Renilla luciferase signal is, setting by setting: (concentration: 0.1 uM) 0.861; (concentration: 1 uM) 0.896; (concentration: 10 uM) 0.975; (concentration: 100 uM) 1.2.
As to `O=C(NC(=O)c1cc(F)c(F)cc1Cl)Nc1cc(F)ccc1N1CCC(C(=O)O)CC1`, the Renilla luciferase signal was 0.8 (concentration: 0.1 uM), 0.813 (concentration: 1 uM), 0.797 (concentration: 10 uM) and 0.641 (concentration: 100 uM).
On to `CCCCSP(=O)(SCCCC)SCCCC` [Tribufos], for which the Renilla luciferase signal was 1.14 (concentration: 0.01 uM); 0.609 (concentration: 0.1 uM); 0.976 (concentration: 1 uM); 0.82 (concentration: 10 uM); 0.728 (concentration: 100 uM).
For the compound `[OH][Sn]([c]1ccccc1)([c]1ccccc1)[c]1ccccc1` [Triphenyltin hydroxide], the Renilla luciferase signal runs as follows: (concentration: 0.01 uM) 0.857; (concentration: 0.1 uM) 0.622; (concentration: 1 uM) 0.135; (concentration: 10 uM) 0.0103; (concentration: 100 uM) 0.0121.
For `Oc1c(Cl)c(Cl)c(Cl)c(Cl)c1Cl` [Pentachlorophenol], the Renilla luciferase signal reads like this: (concentration: 0.1 uM) 0.948; (concentration: 1 uM) 0.938; (concentration: 10 uM) 1.06; (concentration: 100 uM) 0.0601.
The corresponding values for `N#CC(Br)(Br)C(N)=O` [2,2-Dibromo-3-nitrilopropionamide] are 0.805, 0.875, 0.961 and 1.14.
With `CC(=O)[O][Hg][c]1ccccc1` [Phenylmercuric acetate], the Renilla luciferase signal reads like this: (concentration: 0.1 uM) 0.896; (concentration: 1 uM) 0.801; (concentration: 10 uM) 0.0199; (concentration: 100 uM) 0.0298.
For `C[Si](Cn1cncn1)(c1ccc(F)cc1)c1ccc(F)cc1` [Flusilazole], the Renilla luciferase signal (concentration: 0.01 uM) came out at 1.03; the Renilla luciferase signal (concentration: 0.1 uM) came to 1.08; the Renilla luciferase signal (concentration: 1 uM) turned out to be 1.03; the Renilla luciferase signal (concentration: 10 uM) is 0.986; the Renilla luciferase signal (concentration: 100 uM) came out at 0.258.
Consider `c1cc2c3c(cccc3c1)CC2` [Acenaphthene], for which the Renilla luciferase signal was 1.17 (concentration: 0.1 uM), 1.26 (concentration: 1 uM), 1.14 (concentration: 10 uM) and 1.68 (concentration: 100 uM).
Taken in the same sequence, the figures for `Nc1ccc(Cc2ccc(N)cc2)cc1` [4,4'-Methylenedianiline] were 0.803, 0.812, 0.825 and 0.725.
In the case of `COC(=O)Nc1nc2ccccc2[nH]1` [Carbendazim], the Renilla luciferase signal reads like this: (concentration: 0.1 uM) 0.998; (concentration: 1 uM) 1.1; (concentration: 10 uM) 0.565; (concentration: 100 uM) 0.999.
Take `CCCCOCN(C(=O)CCl)c1c(CC)cccc1CC` [Butachlor]: the Renilla luciferase signal was 0.877 (concentration: 0.01 uM); 0.813 (concentration: 0.1 uM); 0.902 (concentration: 1 uM); 0.865 (concentration: 10 uM); 0.895 (concentration: 100 uM).
Take `COc1cccc(NCC(F)Cn2c3ccc(Br)cc3c3cc(Br)ccc32)c1` (stereo not drawn): the Renilla luciferase signal reads like this: (concentration: 0.01 uM) 1.13; (concentration: 0.1 uM) 0.816; (concentration: 1 uM) 0.904; (concentration: 10 uM) 1.04; (concentration: 100 uM) 1.47.
As for `CCOP(=O)(NC(C)C)Oc1ccc(SC)c(C)c1` (stereo not drawn) [Fenamiphos], the Renilla luciferase signal (concentration: 0.01 uM) stood at 0.877; the Renilla luciferase signal (concentration: 0.1 uM) stood at 1.02; the Renilla luciferase signal (concentration: 1 uM) is 0.963; the Renilla luciferase signal (concentration: 10 uM) was 1.03; the Renilla luciferase signal (concentration: 100 uM) was 0.489.
Turning to `[N-]=[N+]=[N-].[Na+]` [Sodium azide], the Renilla luciferase signal came out at 1.11 (concentration: 0.1 uM) and 1.29 (concentration: 100 uM).
Turning to `[N-]=[N+]=[N-].[Na+]` [Sodium Azide], the Renilla luciferase signal by setting is: (concentration: 0.01 uM) 1.38; (concentration: 1 uM) 1.01; (concentration: 10 uM) 1.05.
Regarding `O=C(O)c1nc(Cl)ccc1Cl` [Clopyralid], the Renilla luciferase signal came to 0.962 (concentration: 0.01 uM); 0.828 (concentration: 0.1 uM); 0.985 (concentration: 1 uM); 1 (concentration: 10 uM); 1.8 (concentration: 100 uM).
On to `O=[As][O-].[Na+]` [Sodium arsenite], for which the Renilla luciferase signal runs as follows: (concentration: 0.01 uM) 0.746; (concentration: 0.1 uM) 0.622; (concentration: 1 uM) 0.288; (concentration: 10 uM) 0.0446; (concentration: 100 uM) 0.0136.
For `O=[N+]([O-])c1ccc(Cl)cc1` [1-Chloro-4-nitrobenzene], the Renilla luciferase signal came out at 0.98 (concentration: 0.1 uM), 0.976 (concentration: 1 uM), 0.993 (concentration: 10 uM) and 1.1 (concentration: 100 uM).
On to `CC(C)(O)c1cnn2c(-c3ccc(F)c(-c4c(F)cccc4C#N)c3)cnc2n1`, for which the Renilla luciferase signal is, setting by setting: (concentration: 0.1 uM) 1.15; (concentration: 1 uM) 1.22; (concentration: 10 uM) 0.763; (concentration: 100 uM) 0.628.
The corresponding values for `CCC(C)(c1ccc(O)cc1)c1ccc(O)cc1` [Bisphenol B] are 0.934, 0.965, 0.927 and 0.502.
Regarding `CC(C)Oc1cc(-n2nc(C(C)(C)C)oc2=O)c(Cl)cc1Cl` [Oxadiazon], the Renilla luciferase signal reads like this: (concentration: 0.01 uM) 1.12; (concentration: 0.1 uM) 1.19; (concentration: 1 uM) 0.972; (concentration: 10 uM) 1.06; (concentration: 100 uM) 0.412.
In the case of `COC(=O)c1c(C(F)F)nc(C(F)(F)F)c(C2=NCCS2)c1CC(C)C` [Thiazopyr], the Renilla luciferase signal stood at 0.994 (concentration: 0.01 uM); 1.1 (concentration: 0.1 uM); 0.936 (concentration: 1 uM); 1.05 (concentration: 10 uM); 1.15 (concentration: 100 uM).
For the compound `CN(C)c1nc(=O)n(C2CCCCC2)c(=O)n1C` [Hexazinone], the Renilla luciferase signal is, setting by setting: (concentration: 0.01 uM) 0.842; (concentration: 0.1 uM) 0.839; (concentration: 1 uM) 0.85; (concentration: 10 uM) 0.916; (concentration: 100 uM) 1.2.
In the case of `Cc1cc2c3c(c1)C(c1ccccc1)=N[C@@H](NC(=O)c1ccncc1)C(=O)N3CC2`, the Renilla luciferase signal came out at 1.17 (concentration: 0.1 uM), 1.13 (concentration: 1 uM), 1.06 (concentration: 10 uM) and 0.194 (concentration: 100 uM).
For the compound `CCCCOC(=O)c1ccccc1C(=O)OCCCC` [Dibutyl phthalate], the Renilla luciferase signal (concentration: 0.01 uM) is 1.02; the Renilla luciferase signal (concentration: 0.1 uM) is 1.04; the Renilla luciferase signal (concentration: 1 uM) was 1.02; the Renilla luciferase signal (concentration: 10 uM) amounted to 1.03; the Renilla luciferase signal (concentration: 100 uM) worked out at 0.11.
As for `NCCO.O=C(O)c1nc(Cl)ccc1Cl` [Clopyralid-olamine], the Renilla luciferase signal by setting is: (concentration: 0.01 uM) 1.41; (concentration: 0.1 uM) 1.18; (concentration: 1 uM) 1.06; (concentration: 10 uM) 1.2; (concentration: 100 uM) 1.53.
For the compound `CC(C)(C)c1cc(C(C)(C)C)c(O)c(C(C)(C)C)c1` [2,4,6-Tris(tert-butyl)phenol], the Renilla luciferase signal is 0.951 (concentration: 0.1 uM), 1.04 (concentration: 1 uM), 1.18 (concentration: 10 uM) and 1.73 (concentration: 100 uM).
On to `O=C(O)C(F)(F)C(F)(F)C(F)(F)C(F)(F)C(F)(F)C(F)(F)C(F)(F)C(F)(F)F`, for which the Renilla luciferase signal (concentration: 0.1 uM) came to 0.913, the Renilla luciferase signal (concentration: 1 uM) is 1.01, the Renilla luciferase signal (concentration: 10 uM) turned out to be 0.971 and the Renilla luciferase signal (concentration: 100 uM) was found to be 0.134.
With `N#Cc1cccnc1` [3-Pyridinecarbonitrile], the Renilla luciferase signal amounted to 1.04 (concentration: 0.1 uM), 0.997 (concentration: 1 uM), 0.816 (concentration: 10 uM) and 1.21 (concentration: 100 uM).
With `Cc1ccccc1O` [o-Cresol], the Renilla luciferase signal stood at 0.937 (concentration: 0.1 uM), 0.939 (concentration: 1 uM), 1.02 (concentration: 10 uM) and 1.06 (concentration: 100 uM).
Consider `CCN(CC)C(=O)SCc1ccc(Cl)cc1` [Thiobencarb], for which the Renilla luciferase signal runs as follows: (concentration: 0.01 uM) 1.06; (concentration: 0.1 uM) 0.767; (concentration: 1 uM) 0.904; (concentration: 10 uM) 1.02; (concentration: 100 uM) 1.05.
As for `O=C(O)C(F)(F)C(F)(F)C(F)(F)C(F)(F)C(F)(F)C(F)(F)C(F)(F)C(F)(F)C(F)(F)F`, the Renilla luciferase signal reads like this: (concentration: 0.1 uM) 1.12; (concentration: 1 uM) 1.1; (concentration: 10 uM) 1.12; (concentration: 100 uM) 0.714.
